Reference: patent US20180207294A1, “NON-ALCOHOLIC FATTY LIVER REGULATING FACTOR 14-3-3 PROTEIN” (Korea University Research and Business Foundation, priority 2015, published 2018)
Results are given in words; binding and its absence hold for the method and conditions named. Binding seen in cells or lysates may run through a third protein. Some results given as binding are weak or reduced against the parent protein; the word gives no strength. For some assays here: Sequences can lack the tags named with a protein.

Protein sequences, listed by entry. Tags and fused reporters are not part of them.
UniProt P37231: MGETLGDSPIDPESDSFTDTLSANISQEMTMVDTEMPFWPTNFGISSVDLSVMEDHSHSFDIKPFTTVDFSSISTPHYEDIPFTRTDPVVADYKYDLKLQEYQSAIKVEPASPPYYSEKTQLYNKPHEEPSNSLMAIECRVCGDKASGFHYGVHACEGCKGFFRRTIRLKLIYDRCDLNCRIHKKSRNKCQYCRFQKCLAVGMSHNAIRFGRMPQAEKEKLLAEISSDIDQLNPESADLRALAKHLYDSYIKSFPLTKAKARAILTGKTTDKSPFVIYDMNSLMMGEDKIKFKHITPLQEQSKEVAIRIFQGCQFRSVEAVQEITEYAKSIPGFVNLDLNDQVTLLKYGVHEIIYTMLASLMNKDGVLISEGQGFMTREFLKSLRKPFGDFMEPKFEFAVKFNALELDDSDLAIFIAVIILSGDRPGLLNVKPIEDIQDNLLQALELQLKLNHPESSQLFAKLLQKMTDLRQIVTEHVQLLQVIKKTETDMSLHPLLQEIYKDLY
UniProt P31946: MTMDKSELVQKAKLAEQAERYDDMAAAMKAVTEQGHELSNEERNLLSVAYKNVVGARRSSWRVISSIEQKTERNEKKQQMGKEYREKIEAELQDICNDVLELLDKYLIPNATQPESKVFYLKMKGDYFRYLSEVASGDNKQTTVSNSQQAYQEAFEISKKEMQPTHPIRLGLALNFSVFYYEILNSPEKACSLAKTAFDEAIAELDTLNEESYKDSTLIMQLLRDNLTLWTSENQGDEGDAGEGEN

B1: HA-14-3-3γ (protein, UniProt P61981 1-247, looked up, not shown: small tags and cut ends)
chain: MVDREQLVQKARLAEQAERYDDMAAAMKNVTELNEPLSNEERNLLSVAYKNVVGARRSSWRVISSIEQKTSADGNEKKIEMVRAYREKIEKELEAVCQDVLSLLDNYLIKNCSETQYESKVFYLKMKGDYYRYLAEVATGEKRATVVESSEKAYSEAHEISKEHMQPTHPIRLGLALNYSVFYYEIQNAPEQACHLAKTAFDDAIAELDTLNEDSYKDSTLIMQLLRDNLTLWTSDQQDDDGGEGNN
B2: mGST-14-3-3γ (protein, UniProt P61981 1-247, looked up, not shown: a dimerising Fc or GST)
chain: B1 chain

Tests used:
[1] = molecular target: mGST-PPARγ2 (UniProt P37231); experiment: GST pull-down competition, HA-14-3-3β (2 and 4 µg DNA) against GFP-14-3-3γ
[2] = molecular target: mGST-PPARγ2 (UniProt P37231); experiment: GST pull-down of mGST-PPARγ2 from HEK-293T lysate, western blot, with/without 200 µM oleic acid
[3] = molecular target: Flag-PPARγ2 (1-505) (UniProt P37231); experiment: GST pull-down from HEK-293T lysate, western blot (WT against S112A and S273A)
[4] = molecular target: Myc-PPARγ2 (UniProt P37231); experiment: GST pull-down from HEK-293T lysate, western blot, with/without 10 µM pioglitazone
[5] = molecular target: mGST-PPARγ2 (UniProt P37231); experiment: GST pull-down competition, HA-14-3-3γ (2 and 4 µg DNA) against GFP-14-3-3β

| Molecule | binding [1] | binding [2] | binding [3] | binding [4] | binding [5] |
| --- | --- | --- | --- | --- | --- |
| HA-14-3-3β (from UniProt P31946 1-246) | binds | binds |  |  |  |
| mGST-14-3-3β (from UniProt P31946 1-246) |  |  | binds | binds |  |
| B1 |  | binds |  |  | binds |
| B2 |  |  | binds | binds |  |
